Measured values from PubChem BioAssay AID278 (DTP/NCI, 2004).
The list is a part of this screen's results and no random one: it gathers tests that were run many times, whatever their T/C, doses with no T/C, and many T/C values between a quarter and a half above the control. Further doses and runs are listed elsewhere. T/C gives the treated animals as a percentage of the vehicle group. Schedule codes are those of the source, read here as Q, the interval in days (D) or hours (H), X, the number of doses. Some T/C values are followed by the survivors on the day toxicity was checked, most often the fifth; where none is given, no animal had died by that day. Some entries give survivors of the animals treated and no T/C: the source files T/C as zero there, which appears to mark a toxic dose or a test without result, not a measured value. Counts of survivors are from the toxicity check (mostly the fifth day) where no day follows; animals may have died later.

Test system: nude mice, A549 intrarenal xenograft, tumor weight change
Experiment: NCI In Vivo Anticancer Drug Screen. Data for tumor model A549 Human Adenocarcinoma of Lung with characteristics of Type II Alveolar Epithelial cells (intrarenal inoculation) in NU/NU BALB/C (nude) mice
Conditions: T/C endpoint: mean tumor weight change, higher T/C = larger tumour; for T/C: evaluated on day 12
Description: The antitumor activity of compounds was measured in mice bearing transplantable tumors. Survival or tumor size were measured and the results are expressed as the measurement made in the treated group (T) divided by the measurement made in the vehicle treated control group (C). The tumor model used in this assay is A549 Human Adenocarcinoma of Lung with characteristics of Type II Alveolar Epithelial cells (intrarenal inoculation) in NU/NU BALB/C (nude) mice

[1] = dose: 200.0 mg/kg/injection, schedule: Q04DX003 (ip), vehicle: saline with Tween-80
[2] = dose: 100.0 mg/kg/injection, schedule: Q04DX003 (ip), vehicle: saline with Tween-80
[3] = dose: 1200.0 mg/kg/injection, schedule: Q04DX003 (ip), vehicle: saline with Tween-80
[4] = dose: 150.0 mg/kg/injection, schedule: Q04DX003 (ip), vehicle: saline with Tween-80
[5] = dose: 300.0 mg/kg/injection, schedule: Q04DX003 (ip), vehicle: saline with Tween-80
[6] = dose: 100.0 mg/kg/injection, schedule: Q04DX003 (ip), vehicle: water
[7] = dose: 400.0 mg/kg/injection, schedule: Q04DX003 (ip), vehicle: Klucel (hydroxypropylcellulose) (HPC)
[8] = dose: 75.0 mg/kg/injection, schedule: Q04DX003 (ip), vehicle: saline with Tween-80
[9] = dose: 600.0 mg/kg/injection, schedule: Q04DX003 (ip), vehicle: saline with Tween-80
[10] = dose: 50.0 mg/kg/injection, schedule: Q04DX003 (ip), vehicle: saline with Tween-80

[NH-]C(CCC(N)=O)C(=O)O.[NH-]C(CCC(N)=O)C(=O)O.[Zn+2] (centres undefined)
survivor count [1]: 0 of 6 on day 12

O=[N+]([O-])c1ccc(N(CCO)CCO)c2c1no[n+]2[O-]
survivor count [2]: 1 of 6 on day 12

S=C1CCCCN1
survivor count (dose: 300.0 mg/kg/injection, schedule: Q04DX003 (ip), vehicle: distilled water + Tween-80 + alcohol): 0 of 6 on day 12
survivor count (dose: 600.0 mg/kg/injection, schedule: Q04DX003 (ip), vehicle: distilled water + Tween-80 + alcohol): 0 of 6 on day 12

Nc1nc2n[nH]nc2c(=O)[nH]1
survivor count (dose: 600.0 mg/kg/injection, schedule: Q04DX003 (ip), vehicle: suspension in saline): 2 of 6 on day 12

S=c1sc2ccccc2n1CN1CCOCC1
survivor count [3]: 1 of 6 on day 12

O=C1CN(CCN2CC(=O)N(CN3CCOCC3)C(=O)C2)CC(=O)N1CN1CCOCC1
survivor count [4]: 2 of 6 on day 12
survivor count [5]: 1 of 6 on day 12

CN=C(N)c1ccc(N=C(N)c2ccc(C(N)=Nc3ccc(C(N)=NC)cc3)cc2)cc1
survivor count (dose: 30.0 mg/kg/injection, schedule: Q06HX010 (ip), vehicle: water): 0 of 6 on day 12
survivor count (dose: 45.0 mg/kg/injection, schedule: Q06HX010 (ip), vehicle: water): 0 of 6 on day 12

O=S(=O)(c1cccc(N=C=S)c1)c1cccc(N=C=S)c1
T/C (dose: 60.0 mg/kg/injection, schedule: Q04DX003 (ip), vehicle: Klucel (hydroxypropylcellulose) (HPC)): 135 % of control
survivor count (dose: 120.0 mg/kg/injection, schedule: Q04DX003 (ip), vehicle: Klucel (hydroxypropylcellulose) (HPC)): 0 of 6 on day 12
survivor count (dose: 240.0 mg/kg/injection, schedule: Q04DX003 (ip), vehicle: Klucel (hydroxypropylcellulose) (HPC)): 0 of 6 on day 12

NC(=S)N/N=C/c1cc(=O)c2cc(Cl)ccc2o1
survivor count (dose: 150.0 mg/kg/injection, schedule: Q04DX003 (ip), vehicle: DMSO): 3 of 5 on day 12
survivor count (dose: 1200.0 mg/kg/injection, schedule: Q04DX003 (ip), vehicle: other): 2 of 6 on day 12

Nc1ncnc2c1nc(Cl)n2C1OC2COP(=O)(O)OC2C1O (centres undefined)
T/C [6]: 148 % of control [5 of 6 alive on day 12]
survivor count (dose: 200.0 mg/kg/injection, schedule: Q04DX003 (ip), vehicle: water): 3 of 5 on day 12

O=c1[nH]cnc2c1cnn2CN1CCOCC1
survivor count (dose: 200.0 mg/kg/injection, schedule: Q04DX003 (ip), vehicle: Klucel (hydroxypropylcellulose) (HPC)): 0 of 6 on day 12
survivor count [7]: 0 of 6 on day 12

NC(Cc1ccc(N(CCCl)Cc2ccccc2)cc1)C(=O)O (centres undefined)
survivor count (dose: 400.0 mg/kg/injection, schedule: Q04DX003 (ip), vehicle: saline with Tween-80): 1 of 6 on day 12

CC(C)(C)NC(C1=CC(C)(C)c2ccccc2C1=O)c1ccccc1 (centres undefined)
T/C (dose: 50.0 mg/kg/injection, schedule: Q04DX003 (ip), vehicle: Klucel (hydroxypropylcellulose) (HPC)): 125 % of control
survivor count [7]: 1 of 6 on day 12

Cc1c2ccccc2c(C)c2c1cc(C(=O)O)c1ccccc12
T/C [8]: 132 % of control

CCOc1cc2c(cc1C(C)c1ccc(OC)cc1)OCO2 (centres undefined)
survivor count (dose: 300.0 mg/kg/injection, schedule: Q04DX003 (ip), vehicle: distilled water + alcohol): 1 of 6 on day 12
survivor count (dose: 600.0 mg/kg/injection, schedule: Q04DX003 (ip), vehicle: distilled water + alcohol): 0 of 6 on day 12
survivor count (dose: 1200.0 mg/kg/injection, schedule: Q04DX003 (ip), vehicle: distilled water + alcohol): 0 of 6 on day 12

N[C@@H](Cc1c[nH]c2ccccc12)C(=O)Nc1nncs1
survivor count (dose: 1200.0 mg/kg/injection, schedule: Q04DX003 (ip), vehicle: suspension in saline): 3 of 6 on day 12

NC(=O)c1[nH]cnc1O
survivor count [5]: 2 of 6 on day 12
survivor count [9]: 0 of 6 on day 12
survivor count [3]: 0 of 6 on day 12

O=C(O)[C@H](Cc1ccccc1)N1C(=O)c2ccccc2C1=O
survivor count (dose: 1200.0 mg/kg/injection, schedule: Q04DX003 (ip), vehicle: DMSO): 0 of 6 on day 12

Cc1cc(NC(=S)SCc2ccc3c(c2)OCO3)ccc1Cl
T/C (dose: 150.0 mg/kg/injection, schedule: Q04DX003 (ip), vehicle: Klucel (hydroxypropylcellulose) (HPC)): 125 % of control
survivor count (dose: 900.0 mg/kg/injection, schedule: Q04DX003 (ip), vehicle: Klucel (hydroxypropylcellulose) (HPC)): 0 of 6 on day 12

COC(=O)NC1C(C)OC(OC2C/C=C(/C)C3C=CC4C(OC5CC(OC6CC(OC7CC(O)C(O)C(C)O7)C(OC7CC(O)C(OC)C(C)O7)C(C)O6)C(O)C(C)O5)C(C)CC(C)C4C3(C)/C(O)=C3\C(=O)OC4(CC(C)C(CO)=CC4/C=C\2C)C3=O)CC1(C)[N+](=O)[O-] (centres undefined)
survivor count (dose: 150.0 mg/kg/injection, schedule: Q04DX003 (ip), vehicle: water): 1 of 6 on day 12
survivor count (dose: 300.0 mg/kg/injection, schedule: Q04DX003 (ip), vehicle: water): 0 of 6 on day 12
survivor count (dose: 600.0 mg/kg/injection, schedule: Q04DX003 (ip), vehicle: water): 0 of 6 on day 12

COc1ccc(C(C)c2cc3c(cc2OC)OCO3)cc1 (centres undefined)
T/C [10]: 127 % of control
survivor count [1]: 1 of 6 on day 12

O=S(=O)(O)c1cc(N=C=S)ccc1/C=C/c1ccc(N=C=S)cc1S(=O)(=O)O
T/C (dose: 15.0 mg/kg/injection, schedule: Q04DX003 (ip), vehicle: saline): 144 % of control

O=NNc1cccnc1
survivor count [6]: 3 of 5 on day 12

O=C(NC(Cc1ccc(I)cc1)C(=O)O)c1ccc(Br)cc1 (centres undefined)
survivor count (dose: 300.0 mg/kg/injection, schedule: Q04DX003 (ip), vehicle: other): 0 of 6 on day 12
survivor count (dose: 300.0 mg/kg/injection, schedule: Q04DX003 (ip), vehicle: sodium bicarbonate): 2 of 6 on day 12

C/C(=N\NC(=S)N1CC2CCC(CC2)C1)c1cccc(C)n1
survivor count [10]: 3 of 6 on day 12
survivor count [2]: 2 of 6 on day 12

CN=C(N)N/N=C(\C)c1ccc2sc3ccc(/C(C)=N/NC(N)=NC)cc3c2c1
survivor count (dose: 450.0 mg/kg/injection, schedule: Q04DX003 (ip), vehicle: saline with Tween-80): 2 of 6 on day 12

CN(C)CCNc1ccc(CO)c2sc3ccc(O)cc3c(=O)c12
survivor count [5]: 0 of 6 on day 12
survivor count [9]: 0 of 6 on day 12

O=C1C(=O)c2cccnc2-c2ncccc21
survivor count (dose: 10.0 mg/kg/injection, schedule: Q04DX003 (ip), vehicle: Klucel (hydroxypropylcellulose) (HPC)): 3 of 6 on day 12
survivor count (dose: 20.0 mg/kg/injection, schedule: Q04DX003 (ip), vehicle: Klucel (hydroxypropylcellulose) (HPC)): 0 of 6 on day 12
survivor count (dose: 40.0 mg/kg/injection, schedule: Q04DX003 (ip), vehicle: Klucel (hydroxypropylcellulose) (HPC)): 0 of 6 on day 12

CC1(O)C=CC(=O)C=C1
T/C (dose: 12.5 mg/kg/injection, schedule: Q04DX003 (ip), vehicle: water): 129 % of control
survivor count [6]: 1 of 6 on day 12

CC(O)C1(O)C(O)CC(OC2c3cc4c(c(O)c3[C@@H]3C[C@@]2(C)OC32C=c3cc[nH]c3=N2)C(=O)c2cccc(O)c2C4=O)OC1C (some centres undefined)
T/C (dose: 12.5 mg/kg/injection, schedule: Q04DX003 (ip), vehicle: saline with Tween-80): 145 % of control
survivor count [2]: 0 of 6 on day 12

c1ccc([Te][Te]c2ccccc2)cc1
T/C [8]: 133 % of control
survivor count [8]: 3 of 5 on day 12
survivor count [4]: 0 of 6 on day 12
survivor count [5]: 0 of 6 on day 12
survivor count [9]: 0 of 6 on day 12
